No constants are given. Whether binding was seen depends on the method and setting. Some results given as binding are weak or reduced against the parent protein; the word gives no strength. Tags and fused reporters may be left off the sequences shown.
Biological target: T1, His-tagged Myxococcus xanthus DK1622 GroES (Myxococcus xanthus DK1622) (UniProt Q1D2S2)
T1 sequence: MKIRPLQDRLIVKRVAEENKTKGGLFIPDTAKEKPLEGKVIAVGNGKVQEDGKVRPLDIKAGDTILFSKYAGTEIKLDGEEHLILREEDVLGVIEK
Test: pull-down; GroEL1 or GroEL2 (20 mg, excess) mixed with 1-4 mg His-tagged GroES for 3 h in 25 mM Tris-HCl pH 8.0, 300 mM NaCl, 2 mM dithiothreitol, 2 mM ATP; passed through nickel column, washed three times, eluted with 500 mM imidazole, SDS-PAGE; both purified

Amino acid sequences for entries named in this document (tags omitted).
UniProt Q1D3Y5: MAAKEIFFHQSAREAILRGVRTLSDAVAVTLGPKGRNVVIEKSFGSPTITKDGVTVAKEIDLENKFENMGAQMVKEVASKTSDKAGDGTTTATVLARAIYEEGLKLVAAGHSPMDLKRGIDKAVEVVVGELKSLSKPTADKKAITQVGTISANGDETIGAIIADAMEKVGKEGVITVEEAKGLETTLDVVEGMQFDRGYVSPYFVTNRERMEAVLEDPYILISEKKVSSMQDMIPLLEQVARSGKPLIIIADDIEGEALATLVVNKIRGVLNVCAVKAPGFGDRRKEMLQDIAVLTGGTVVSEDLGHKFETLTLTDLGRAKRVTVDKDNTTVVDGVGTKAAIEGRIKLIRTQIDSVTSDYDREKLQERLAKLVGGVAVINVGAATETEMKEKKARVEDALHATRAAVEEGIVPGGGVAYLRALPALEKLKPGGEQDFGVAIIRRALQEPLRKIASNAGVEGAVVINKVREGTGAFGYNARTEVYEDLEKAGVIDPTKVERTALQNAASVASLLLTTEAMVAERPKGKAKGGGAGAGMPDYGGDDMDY
UniProt Q1D2S1: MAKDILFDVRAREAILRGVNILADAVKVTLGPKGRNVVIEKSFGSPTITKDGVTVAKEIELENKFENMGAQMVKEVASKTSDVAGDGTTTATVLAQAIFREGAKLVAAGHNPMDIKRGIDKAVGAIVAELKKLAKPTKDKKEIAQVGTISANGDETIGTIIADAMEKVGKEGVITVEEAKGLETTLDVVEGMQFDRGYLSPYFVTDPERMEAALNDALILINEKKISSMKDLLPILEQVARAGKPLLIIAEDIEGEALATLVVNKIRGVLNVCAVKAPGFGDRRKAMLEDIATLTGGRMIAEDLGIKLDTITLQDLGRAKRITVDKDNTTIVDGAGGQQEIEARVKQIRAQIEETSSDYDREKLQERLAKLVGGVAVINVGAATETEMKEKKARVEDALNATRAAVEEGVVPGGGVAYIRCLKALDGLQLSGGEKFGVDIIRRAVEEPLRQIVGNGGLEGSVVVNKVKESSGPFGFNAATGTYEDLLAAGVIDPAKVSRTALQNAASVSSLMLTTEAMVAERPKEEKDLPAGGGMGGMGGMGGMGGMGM

Myxococcus xanthus DK1622 GroEL2 (from UniProt Q1D3Y5 1-547)
binding: binds

Myxococcus xanthus DK1622 GroEL1 (from UniProt Q1D2S1 1-549)
binding: binds

Source: paper PMC5406781
